Results are given in words; binding and its absence hold for the method and conditions named. In cells and extracts the contact can be indirect. Some binding calls cover weakened binding; strength is not graded here.
Molecular target: Human Tnk1 (thirty-eight negative kinase 1), wild type (human) (UniProt Q13470)
Test: co-IP; FLAG-tagged and SBP-tagged copies coexpressed in HEK293T; lysate (25 mM Tris pH 7.5, 1 mM EDTA, 100 mM NaCl, 1% Triton X-100) incubated with anti-FLAG resin 2 h at 4 °C, five washes; Western blot with FLAG and SBP antibodies

binding: binds
B1: Human Tnk1 (thirty-eight negative kinase 1), wild type (enzyme, UniProt Q13470-2 1-661)
chain: MLPEAGSLWLLKLLRDIQLAQFYWPILEELNVTRPEHFDFVKPEDLDGIGMGRPAQRRLSEALKRLRSGPKSKNWVYKILGGFAPEHKEPTLPSDSPRHLPEPEGGLKCLIPEGAVCRGELLGSGCFGVVHRGLWTLPSGKSVPVAVKSLRVGPEGPMGTELGDFLREVSVMMNLEHPHVLRLHGLVLGQPLQMVMELAPLGSLHARLTAPAPTPPLLVALLCLFLRQLAGAMAYLGARGLVHRDLATRNLLLASPRTIKVADFGLVRPLGGARGRYVMGGPRPIPYAWCAPESLRHGAFSSASDVWMFGVTLWEMFSGGEEPWAGVPPYLILQRLEDRARLPRPPLCSRALYSLALRCWAPHPADRPSFSHLEGLLQEAGPSEACCVRDVTEPGALRMETGDPITVIEGSPDSTIWKGQNGRTFKVGSFPASAVTLADAGGLPATRPVHRGTPARGDQHPGSIDGDRKKANLWDAPPARGQRRNMPLERMKGISRSLESVLSLGPRPTGGGSSPPEIRQARAVPQGPPGLPPRPPLSSSSPQPSQPSRERLPWPKRKPPHNHPMGMPGARKAAALSGGLLSDPELQRKIMEVELSVHGVTHQECQTALGATGGDVVSAIRNLKVDQLFHLSSRSRADCWRILEHYQWDLSAASRYVLARP

Reference: PMC9703632, “The noncatalytic regions of the tyrosine kinase Tnk1 are important for activity and substrate specificity” (The Journal of Biological Chemistry, 2022)
